Values from PubChem BioAssay AID743121 (NCATS, 2013).

- Screen: 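Knock-downs that sensitise breast cancer cells to camptothecin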 (primary screen)
- Cells: MDA-MB-231 cells, a human breast cancer line
- Reagent: single siRNA against human genes, 20 nM siRNA (0.8 pmol per well)
- Timing: 120 h (drug added 48 h after transfection, read 72 h later)
- Conditions: camptothecin 20 nM (about EC30) for 72 h; vehicle 0.1% DMSO in parallel plates
- Read-out: 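Cell viability by ATP luminescence (CellTiter-Glo) as % of non-targeting siRNA wells, and the log2 ratio of viability without drug over viability with camptothecin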
- Scale: log2 vehicle/camptothecin viability: higher = stronger sensitisation to camptothecin; viability with camptothecin and viability without drug: higher = more viable cells
- Active means: 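Each gene scored by redundant siRNA activity (RSA) over its individual siRNA ratios; a gene is called active at p < 0.001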
This is a random part of about 26,000 reagents. In the full data, 167 (0.63%) are marked active. 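Calls are per gene from RSA p-values that are not deposited; an individual active-marked siRNA can sensitise only weakly.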 Reagents against one gene are numbered here.

The opening 8 entries, ahead of the listing:
| target | reagent no. | log2 vehicle/camptothecin viability | viability with camptothecin (% of control) | viability without drug (% of control) | activity call |
| --- | --- | --- | --- | --- | --- |
| SPO11 (SPO11 initiator of meiotic double strand breaks) | 1 | -0.43 | 105 | 77.9 | inactive |
| SPO11 (SPO11 initiator of meiotic double strand breaks) | 2 | 0.662 | 22.9 | 36.3 | inactive |
| SPO11 (SPO11 initiator of meiotic double strand breaks) | 3 | 0.0308 | 45.1 | 46.1 | inactive |
| SPO11 (SPO11 initiator of meiotic double strand breaks) | 4 | -0.051 | 74 | 71.5 | inactive |
| STK16 (serine/threonine kinase 16) | 1 | 0.161 | 76.2 | 85.2 | inactive |
| STK16 (serine/threonine kinase 16) | 2 | -0.524 | 85.1 | 59.2 | inactive |
| STK16 (serine/threonine kinase 16) | 3 | -0.245 | 40.9 | 34.5 | inactive |
| STK16 (serine/threonine kinase 16) | 4 | -0.43 | 73.1 | 54.3 | inactive |

Main list, from the first entry:
| target | reagent no. | log2 vehicle/camptothecin viability | viability with camptothecin (% of control) | viability without drug (% of control) | activity call |
| --- | --- | --- | --- | --- | --- |
| SPO11 (SPO11 initiator of meiotic double strand breaks) | 1 | -0.43 | 105 | 77.9 | inactive |
| SPO11 (SPO11 initiator of meiotic double strand breaks) | 2 | 0.662 | 22.9 | 36.3 | inactive |
| SPO11 (SPO11 initiator of meiotic double strand breaks) | 3 | 0.0308 | 45.1 | 46.1 | inactive |
| SPO11 (SPO11 initiator of meiotic double strand breaks) | 4 | -0.051 | 74 | 71.5 | inactive |
| STK16 (serine/threonine kinase 16) | 1 | 0.161 | 76.2 | 85.2 | inactive |
| STK16 (serine/threonine kinase 16) | 2 | -0.524 | 85.1 | 59.2 | inactive |
| STK16 (serine/threonine kinase 16) | 3 | -0.245 | 40.9 | 34.5 | inactive |
| STK16 (serine/threonine kinase 16) | 4 | -0.43 | 73.1 | 54.3 | inactive |
| ADK (adenosine kinase) | 1 | -0.269 | 63.4 | 52.6 | inactive |
| ADK (adenosine kinase) | 2 | -0.432 | 94.2 | 69.8 | inactive |
| ADK (adenosine kinase) | 3 | -0.809 | 101 | 57.9 | inactive |
| ADK (adenosine kinase) | 4 | 0.0971 | 73.8 | 78.9 | inactive |
| KIF5B (kinesin family member 5B) | 1 | -0.404 | 102 | 77.4 | inactive |
| KIF5B (kinesin family member 5B) | 2 | -0.168 | 73 | 65 | inactive |
| KIF5B (kinesin family member 5B) | 3 | -0.207 | 117 | 101 | inactive |
| PHF12 (PHD finger protein 12) | 1 | -0.0604 | 36.2 | 34.7 | inactive |
| PHF12 (PHD finger protein 12) | 2 | 0.29 | 56.7 | 69.4 | inactive |
| PHF12 (PHD finger protein 12) | 3 | 0.347 | 28.2 | 35.8 | inactive |
| PHF12 (PHD finger protein 12) | 4 | -0.0396 | 108 | 105 | inactive |
| UBAP2L (ubiquitin associated protein 2 like) | 1 | 0.167 | 62.7 | 70.4 | inactive |
| UBAP2L (ubiquitin associated protein 2 like) | 2 | 0.125 | 59.3 | 64.6 | inactive |
| UBAP2L (ubiquitin associated protein 2 like) | 3 | -0.0247 | 88.7 | 87.2 | inactive |
| MVP (major vault protein) | 1 | -0.00116 | 93.1 | 93 | inactive |
| MVP (major vault protein) | 2 | -0.287 | 81.6 | 66.9 | inactive |
| MVP (major vault protein) | 3 | 0.106 | 36.9 | 39.7 | inactive |
| SAG (S-antigen visual arrestin) | 1 | -0.0722 | 51.3 | 48.8 | inactive |
| SAG (S-antigen visual arrestin) | 2 | 0.397 | 53.4 | 70.2 | inactive |
| SAG (S-antigen visual arrestin) | 3 | -0.0395 | 97.8 | 95.1 | inactive |
| SAG (S-antigen visual arrestin) | 4 | -0.57 | 91 | 61.3 | inactive |
| CD72 (CD72 molecule) | 1 | -0.574 | 28.5 | 19.2 | inactive |
| CD72 (CD72 molecule) | 2 | 0.0978 | 101 | 108 | inactive |
| CD72 (CD72 molecule) | 3 | 0.357 | 72.2 | 92.5 | inactive |
| CD72 (CD72 molecule) | 4 | -0.27 | 53.3 | 44.2 | inactive |
| ZW10 (zw10 kinetochore protein) | 1 | -0.633 | 89.8 | 57.9 | inactive |
| ZW10 (zw10 kinetochore protein) | 2 | -0.0871 | 111 | 104 | inactive |
| ZW10 (zw10 kinetochore protein) | 3 | -0.236 | 52.1 | 44.2 | inactive |
| ZW10 (zw10 kinetochore protein) | 4 | -0.366 | 63.2 | 49 | inactive |
| KLK15 (kallikrein related peptidase 15) | 1 | -0.239 | 67.3 | 57 | inactive |
| KLK15 (kallikrein related peptidase 15) | 2 | 1.16 | 26.6 | 59.6 | inactive |
| KLK15 (kallikrein related peptidase 15) | 3 | -0.0896 | 94.3 | 88.6 | inactive |
| DPP3 (dipeptidyl peptidase 3) | 1 | -0.374 | 57.8 | 44.6 | inactive |
| DPP3 (dipeptidyl peptidase 3) | 2 | -0.312 | 66.1 | 53.3 | inactive |
| DPP3 (dipeptidyl peptidase 3) | 3 | -0.132 | 43 | 39.2 | inactive |
| VAT1L (vesicle amine transport 1 like) | 1 | -0.574 | 48.5 | 32.6 | inactive |
| VAT1L (vesicle amine transport 1 like) | 2 | -0.0136 | 105 | 104 | inactive |
| VAT1L (vesicle amine transport 1 like) | 3 | -0.32 | 63.4 | 50.8 | inactive |
| VAT1L (vesicle amine transport 1 like) | 4 | -0.33 | 73.8 | 58.7 | inactive |
| FBXL4 (F-box and leucine rich repeat protein 4) | 1 | -0.132 | 126 | 115 | inactive |
| FBXL4 (F-box and leucine rich repeat protein 4) | 2 | -0.368 | 102 | 79 | inactive |
| FBXL4 (F-box and leucine rich repeat protein 4) | 3 | -0.503 | 69.6 | 49.1 | inactive |
| FBXL4 (F-box and leucine rich repeat protein 4) | 4 | -0.266 | 64.8 | 53.9 | inactive |
| PHKG2 (phosphorylase kinase catalytic subunit gamma 2) | 1 | -0.386 | 30.1 | 23 | inactive |
| PHKG2 (phosphorylase kinase catalytic subunit gamma 2) | 2 | -0.449 | 92.3 | 67.7 | inactive |
| PHKG2 (phosphorylase kinase catalytic subunit gamma 2) | 3 | -0.0249 | 75.8 | 74.5 | inactive |
| PHKG2 (phosphorylase kinase catalytic subunit gamma 2) | 4 | -0.286 | 89.7 | 73.6 | inactive |
| PTMA (prothymosin alpha) | 1 | -0.258 | 104 | 86.7 | inactive |
| PTMA (prothymosin alpha) | 2 | 0.0998 | 51.1 | 54.7 | inactive |
| PTMA (prothymosin alpha) | 3 | -0.024 | 78.7 | 77.4 | inactive |
| PTMA (prothymosin alpha) | 4 | -0.188 | 57.3 | 50.3 | inactive |
| GDF15 (growth differentiation factor 15) | 1 | 0.028 | 89.5 | 91.2 | inactive |
| GDF15 (growth differentiation factor 15) | 2 | -0.0815 | 103 | 97 | inactive |
| GDF15 (growth differentiation factor 15) | 3 | -0.277 | 51.1 | 42.2 | inactive |
| GDF15 (growth differentiation factor 15) | 4 | 0.0473 | 92.5 | 95.6 | inactive |
| CDK9 (cyclin dependent kinase 9) | 1 | -0.276 | 94.1 | 77.7 | inactive |
| CDK9 (cyclin dependent kinase 9) | 2 | -0.54 | 59 | 40.6 | inactive |
| CDK9 (cyclin dependent kinase 9) | 3 | 0.137 | 34.6 | 38 | inactive |
| CDK9 (cyclin dependent kinase 9) | 4 | -0.249 | 131 | 110 | inactive |
| PHB2 (prohibitin 2) | 1 | -0.357 | 62.7 | 48.9 | inactive |
| PHB2 (prohibitin 2) | 2 | 0.055 | 54.8 | 56.9 | inactive |
| PHB2 (prohibitin 2) | 3 | 0.468 | 6.62 | 9.16 | inactive |
| TIAM2 (TIAM Rac1 associated GEF 2) | 1 | 0.664 | 45.1 | 71.4 | inactive |
| TIAM2 (TIAM Rac1 associated GEF 2) | 2 | -0.306 | 77.9 | 63.1 | inactive |
| TIAM2 (TIAM Rac1 associated GEF 2) | 3 | -0.124 | 98.4 | 90.3 | inactive |
| TIAM2 (TIAM Rac1 associated GEF 2) | 4 | -0.216 | 115 | 99.2 | inactive |
| WNK3 (WNK lysine deficient protein kinase 3) | 1 | 0.0201 | 93.2 | 94.5 | inactive |
| WNK3 (WNK lysine deficient protein kinase 3) | 2 | -0.186 | 62.7 | 55.1 | inactive |
| WNK3 (WNK lysine deficient protein kinase 3) | 3 | -0.205 | 117 | 101 | inactive |
| WNK3 (WNK lysine deficient protein kinase 3) | 4 | 0.935 | 24.2 | 46.2 | inactive |
| KHK (ketohexokinase) | 1 | -0.0355 | 45.1 | 44 | inactive |
| KHK (ketohexokinase) | 2 | 0.104 | 94.2 | 101 | inactive |
| KHK (ketohexokinase) | 3 | -0.392 | 47.7 | 36.3 | inactive |
| KHK (ketohexokinase) | 4 | -0.118 | 87.7 | 80.8 | inactive |
| RPS6KA2 (ribosomal protein S6 kinase A2) | 1 | -0.404 | 102 | 77.1 | inactive |
| RPS6KA2 (ribosomal protein S6 kinase A2) | 2 | 0.35 | 38.8 | 49.4 | inactive |
| RPS6KA2 (ribosomal protein S6 kinase A2) | 3 | -0.563 | 122 | 82.9 | inactive |
| RPS6KA2 (ribosomal protein S6 kinase A2) | 4 | 0.771 | 24.9 | 42.5 | inactive |
| TNFSF13 (TNF superfamily member 13) | 1 | 0.0481 | 87.7 | 90.7 | inactive |
| TNFSF13 (TNF superfamily member 13) | 2 | -0.546 | 33.8 | 23.1 | inactive |
| TNFSF13 (TNF superfamily member 13) | 3 | 0.124 | 28.6 | 31.1 | inactive |
| TNFSF13 (TNF superfamily member 13) | 4 | -0.0843 | 93.8 | 88.5 | inactive |
